PubChem BioAssay AID652259 – Drosophila RNAi Screening Center, 2013
In all, the deposit lists about 22,000 reagents; this is a random part of those with a known target gene and a result. Of all reagents, 233 (1.1%) were called active. 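Light values are raw, unnormalised plate reads; the ratio scores behind the reporter calls were not deposited.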 Entries without a mark were called inactive. A plus sign joins genes that one reagent is predicted to hit. Not given: the amount of reagent, the time to read-out, the dose of the treatment.

Test: 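Genome-wide hunt for genes that control Wingless pathway activity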 (primary screen)
System: Drosophila clone 8 imaginal disc epithelial cells
Knock-down reagent: long dsRNA against Drosophila genes
Treatment: pathway stimulated by co-transfected Wingless expression plasmid
Measurement: 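Firefly luciferase from a tcf-site Wingless reporter, measured alongside co-transfected Renilla luciferase that tracks transfection; pathway stimulated by a Wingless plasmid; the firefly-to-Renilla ratio is not deposited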
Reading the numbers: firefly reporter light: higher = more Wg reporter light, before normalisation; Renilla control light: higher = more transfected or surviving cells
Active means: 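a knock-down is a candidate when at least two out of four statistical tests show it departing from its plate mean; one test alone signals a weak candidate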
Meaning of the calls: active = candidate regulator (raises or lowers reporter); inactive = not a candidate

dgt2 (dim gamma-tubulin 2) [DRSC02548]
- firefly reporter light, replicate 1: 3896
- firefly reporter light, replicate 2: 5717
- Renilla control light, replicate 1: 1440
- Renilla control light, replicate 2: 2932

Diedel3 (Diedel 3) [DRSC19544]
- firefly reporter light, replicate 1: 12370
- Renilla control light, replicate 1: 9856

LysB (Lysozyme B) [DRSC08673]
- firefly reporter light, replicate 1: 4992
- Renilla control light, replicate 1: 2281

CG32073 [DRSC09087]
- firefly reporter light, replicate 1: 4283
- Renilla control light, replicate 1: 1808

CG32073 [DRSC09894]
- firefly reporter light, replicate 1: 6680
- Renilla control light, replicate 1: 3130

Rsph3 (Radial spoke head protein 3) [DRSC09696]
- firefly reporter light, replicate 1: 5557
- Renilla control light, replicate 1: 2896

Rsph3 (Radial spoke head protein 3) [DRSC10211]
- firefly reporter light, replicate 1: 1649
- firefly reporter light, replicate 2: 7457
- Renilla control light, replicate 1: 1657
- Renilla control light, replicate 2: 4729

Part of the list above, reduced to “Renilla control light, replicate 1”.
Diedel3 (Diedel 3) [DRSC19544]	9856
LysB (Lysozyme B) [DRSC08673]	2281

The listing continues.
CG8892 [DRSC03121]
- firefly reporter light, replicate 1: 7334
- Renilla control light, replicate 1: 3165

lbm (late bloomer) [DRSC07643]
- firefly reporter light, replicate 1: 1968
- firefly reporter light, replicate 2: 6249
- Renilla control light, replicate 1: 793
- Renilla control light, replicate 2: 2466

CG5011 [DRSC00674]
- firefly reporter light, replicate 1: 13721
- Renilla control light, replicate 1: 6544

CG7542 [DRSC10868]
- firefly reporter light, replicate 1: 4028
- Renilla control light, replicate 1: 2400

snRNA:U1:95Cc + snRNA:U1:95Cb [DRSC13641]
- firefly reporter light, replicate 1: 2785
- Renilla control light, replicate 1: 1416
